Measurements taken from the supplement of paper PMC3334620.
Whole data set: some 33,000 sequences, median “E-score (-0.5 to 0.5)” near -0.0059, cut for the highest 2% near 0.26. Some of the results follow.

Each sequence was assayed against T1, Cin5 (UniProt P40917) (assay: PBM E-score (8-mer binding enrichment) (E-score (-0.5 to 0.5)); higher = stronger / more preferred TF binding). Conditions: protein concentration: 100 nM; construct: GST-full length.
T1 sequence: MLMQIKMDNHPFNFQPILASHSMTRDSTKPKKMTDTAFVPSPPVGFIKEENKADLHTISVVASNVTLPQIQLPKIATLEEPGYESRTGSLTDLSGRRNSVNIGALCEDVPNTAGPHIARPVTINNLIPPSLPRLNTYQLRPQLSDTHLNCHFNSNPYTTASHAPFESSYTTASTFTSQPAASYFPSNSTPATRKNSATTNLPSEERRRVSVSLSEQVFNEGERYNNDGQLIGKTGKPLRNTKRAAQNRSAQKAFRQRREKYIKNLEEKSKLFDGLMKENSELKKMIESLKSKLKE
Method in brief: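 Full-length yeast transcription factors or their DNA-binding domains, GST-tagged and expressed with PURExpress, were applied at about 100-200 nM to universal all-10-mer Agilent arrays. These arrays had been made double-stranded by primer extension on fresh or once-stripped slides. Detection used fluorescent anti-GST, normalisation used masliner, and E-scores for ungapped eight-base words pooled with reverse complements came from the Universal PBM Analysis Suite.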

| Sequence | PBM E-score |
| --- | --- |
| CAACCTCA | -0.0493 |
| CGGAAGAA | 0.0104 |
| GCCCTTGA | -0.253 |
| CTACTGCC | -0.117 |
| TACGAACA | -0.112 |
| AAGGTGAG | -0.00458 |
| AAGCCTCT | -0.187 |
| AAGCTGCA | 0.0791 |
| CAAATTGA | 0.109 |
| CACGGTTC | -0.2 |
| CCGAATTA | 0.0794 |
| AAGCACCC | -0.0437 |
| GCGCAGTA | 0.0953 |
| CATAATCC | 0.265 |
| AGAACAGG | -0.13 |
| TTGTTAAA | -0.127 |
| GAATGGGA | 0.0182 |
| ATATCTTC | 0.225 |
| CTTGCCCC | -0.185 |
| GATCGTCC | -0.15 |
| ACTACGTC | 0.00455 |
| ACATCTGC | -0.0701 |
| GGTGTCGA | 0.022 |
| CTGAGGAC | -0.151 |
| ATCGAACG | 0.00807 |

| Sequence | PBM E-score |
| --- | --- |
| AAATATGA | 0.245 |
| ATGACGCC | -0.0636 |
| ACCTACCT | -0.137 |
| ACCAGATC | -0.0659 |
| ATAATCAT | 0.377 |
| CATGACCA | 0.0168 |
| CCCGTGCG | -0.123 |
| GGCTAGCA | -0.0387 |
| AACTTAAT | 0.211 |
| ACATAGTA | 0.15 |
| AACATATG | 0.0896 |
| AGGGTAAA | 0.0833 |
| CCAATCAA | 0.0665 |
| CTATGCGA | 0.0728 |
| CCTTGAGA | -0.0182 |
| CCAGTATC | -0.0585 |
| AAGGAAAA | 0.222 |
| AAGGCGGC | -0.32 |
| AGGGCAAT | 0.0012 |
| ACAACGCG | 0.223 |
| GAGTGTAA | -0.107 |
| GAGCTCGC | 0.0383 |
| AGGGAACC | -0.211 |
| CGATCCTA | -0.0425 |
| AGCCAGAT | -0.0293 |

| Sequence | PBM E-score |
| --- | --- |
| GGAACTAA | 0.163 |
| AATTACGC | 0.073 |
| CTGACGGC | -0.165 |
| AGGCAAAA | 0.167 |
| ATCACAGA | -0.0171 |
| GTCGACAA | -0.0882 |
| TATACAAA | 0.169 |
| CCAATGAG | -0.0379 |
| AGCTGTCG | -0.274 |
| ACAAGTTC | 0.0429 |
| AACGGACC | -0.0992 |
| ACCGAGAG | 0.0123 |
| GGGCGTGA | -0.113 |
| CCGAAGAG | -0.116 |
| GCCGCTTA | 0.156 |
| TAATCCAA | 0.283 |
| ACTCGAAG | -0.252 |
| CCCTCTCA | -0.231 |
| CCCCAAAC | -0.0852 |
| CCCGAGTA | 0.15 |
| ACCCCCAT | -0.356 |
| ATATGTCC | 0.0709 |
| CCGCACTA | 0.0168 |
| CTTCCTAA | -0.0712 |
| CGTGGGAG | -0.279 |

| Sequence | PBM E-score |
| --- | --- |
| CCGAACCC | -0.231 |
| CGCTCGCA | 0.0447 |
| AAAACAGA | 0.197 |
| ACTCTGTC | 0.0135 |
| ATACTTTC | 0.122 |
| GCCACGAA | -0.23 |
| CTTGATAA | 0.177 |
| GTCAGCAC | 0.117 |
| TACTATCA | 0.179 |
| ACCCGCGT | -0.0918 |
| GGGGCAGA | -0.0398 |
| CATATACC | -0.0774 |
| GTTTCGCA | -0.113 |
| ATCAGAGA | 0.0158 |
| CATTCTAA | -0.0081 |
| AATCACTC | 0.0605 |
| ACGCACCA | -0.0787 |
| ACTAAGCA | 0.241 |
| CCTGCTGC | -0.0577 |
| GAAGTGTC | -0.00163 |
| ACTGAGTG | -0.0469 |
| AGGTTTCA | 0.107 |
| ACGGGAAC | 0.031 |
| AGAAGGAA | -0.157 |
| AGATAGCA | 0.18 |

3 consecutive entries already listed:

| Sequence | PBM E-score |
| --- | --- |
| CATGACCA | 0.0168 |
| CCCGTGCG | -0.123 |
| GGCTAGCA | -0.0387 |

(further entries)

| Sequence | PBM E-score |
| --- | --- |
| AGCGTTAA | 0.0126 |
| ACGTGTTA | 0.215 |
| CTAGGCGA | -0.0512 |
| GACTTTAC | 0.0588 |
| ATTGTTCA | 0.101 |
| CTACATGA | -0.127 |
| CTGTTTGC | 0.075 |
| AGGCCACG | -0.155 |
| TAGCGCGA | 0.13 |
| CGATTGAA | -0.0302 |
| CGATAGTA | 0.0573 |
| AGCCGTAC | 0.0736 |
| CGAGCATC | 0.0462 |
| AGAACGAA | 0.115 |
| AGCCGACT | -0.275 |
| ACAAACAG | 0.127 |
| TCTGGGCA | -0.124 |
| TGAAGACA | -0.137 |
| GATAAGAA | 0.141 |
| CCCGGCCA | -0.288 |
| CGCGCCGA | -0.124 |
| GCTGCGCC | -0.211 |
| CAACTAAG | 0.182 |
| AGCCCTTC | -0.333 |
| CAGCTGCA | -0.143 |

| Sequence | PBM E-score |
| --- | --- |
| CAAGTCTC | -0.274 |
| ACGTCCAC | -0.124 |
| GAACCAAA | -0.083 |
| AGCATAAA | 0.148 |
| ACCGAAAT | 0.116 |
| AGCCACCC | -0.251 |
| AGCAGTCG | -0.0658 |
| AAAGGTAT | 0.101 |
| ACCTAAGC | 0.327 |
| CGGATACC | 0.0163 |
| AGATCAGA | -0.036 |
| CGTTCTCC | -0.0269 |
| AGTAGGAC | 0.0243 |
| TGCCACCA | -0.243 |
| ACTGATAG | -0.00682 |
| ACGTTAAG | -0.0111 |
| AGAAGCAC | -0.0648 |
| ATCTAACG | -0.032 |
| GGTGCTCA | -0.186 |
| AATCTAGA | -0.0566 |
| CGGACCGC | -0.112 |
| AAGACGTC | -0.132 |
| CCTATGAG | -0.0979 |
| AGAGCGAC | -0.129 |
| AGATGACG | 0.0912 |

| Sequence | PBM E-score |
| --- | --- |
| AAAAACGC | -0.0218 |
| CATCTCGC | 0.0181 |
| AGCTAGTC | 0.0266 |
| ACCTGCAG | -0.129 |
| AACTGTCA | 0.0613 |
| AGTTGCGA | 0.196 |
| CCCTCGAG | -0.113 |
| ACCCTTGA | -0.137 |
| ACAATGCG | 0.187 |
| ACAGTGTA | -0.00594 |
| GAGTTGCC | 0.0728 |
| TAAAGTGA | 0.218 |
| ACGGTAAA | 0.0258 |
| ACTCCAAG | 0.0126 |
| TCACGTCA | 0.209 |
| TTTGCAAA | 0.083 |
| GTCTAGCA | -0.0616 |
| AGTGGGGC | -0.217 |
| GAAGTGCA | 0.0711 |
| AAGATAAT | 0.147 |
| GCGGTCAA | -0.0866 |
| CCGCGGTC | -0.104 |

Reprinted at random: 4 entries already listed, in no set order.

| Sequence | PBM E-score |
| --- | --- |
| GAGTTGCC | 0.0728 |
| AGCTAGTC | 0.0266 |
| CCCTCGAG | -0.113 |
| TTTGCAAA | 0.083 |
